One compound from the supplement of paper PMC12067093, “Discovery and optimisation of a covalent ligand for TRIM25 and its application to targeted protein ubiquitination” (Chemical Science, 2025) can be followed below.

Amino acid sequences for entries named in this document (tags omitted). A change or cut given only in a name is not applied to a line headed by its entry.
UniProt P62318, whole entry, looked up: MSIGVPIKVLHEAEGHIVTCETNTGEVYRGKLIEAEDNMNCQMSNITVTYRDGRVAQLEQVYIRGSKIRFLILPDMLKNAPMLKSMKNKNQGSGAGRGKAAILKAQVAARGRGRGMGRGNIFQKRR
UniProt Q8N0X7: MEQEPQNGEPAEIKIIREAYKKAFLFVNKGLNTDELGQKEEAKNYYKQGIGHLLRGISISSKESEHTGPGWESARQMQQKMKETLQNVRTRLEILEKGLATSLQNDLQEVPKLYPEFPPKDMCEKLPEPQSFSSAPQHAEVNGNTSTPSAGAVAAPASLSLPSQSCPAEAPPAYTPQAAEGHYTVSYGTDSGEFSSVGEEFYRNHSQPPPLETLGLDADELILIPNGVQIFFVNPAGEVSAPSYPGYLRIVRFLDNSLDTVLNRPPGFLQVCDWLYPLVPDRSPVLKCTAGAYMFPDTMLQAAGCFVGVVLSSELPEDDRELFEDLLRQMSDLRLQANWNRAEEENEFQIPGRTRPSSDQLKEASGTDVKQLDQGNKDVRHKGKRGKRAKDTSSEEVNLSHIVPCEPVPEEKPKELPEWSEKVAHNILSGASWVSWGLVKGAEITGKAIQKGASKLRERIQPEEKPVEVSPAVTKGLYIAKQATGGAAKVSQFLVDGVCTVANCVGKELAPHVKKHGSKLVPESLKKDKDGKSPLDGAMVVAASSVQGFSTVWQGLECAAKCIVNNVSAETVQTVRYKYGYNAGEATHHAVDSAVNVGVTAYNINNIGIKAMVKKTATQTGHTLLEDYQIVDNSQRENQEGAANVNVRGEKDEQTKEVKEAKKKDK

Assay [1] concerns the target SNRPD3_P62318_20_VLHEAEGHIVTCETNTGEVYR (UniProt P62318). Nature of the assay: probe-labelled cysteine peptide fold change vs DMSO (competition) (log2 fold change); higher = less target engagement (more negative = stronger competition). Conditions: THP-1, incubation time: 4 h.
The target in assay [2] is SPART_Q8N0X7_405_DTSSEEVNLSHIVPCEPVPEEKPK (UniProt Q8N0X7). The description is as above. The settings on record: THP-1, incubation time: 4 h.

Molecules are shown by their SMILES. Some of the results follow.
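Further: competitive profiling in live THP-1 cells: cysteine peptides tagged with an iodoacetamide desthiobiotin (IA-DTB) probe, intensity after compound treatment relative to DMSO-treated cells.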

For the compound `Cc1cc(C(=O)N2CCCN(C(=O)CCl)CC2)ccc1-c1ccccc1` [compound 10], the “probe-labelled cysteine peptide fold change” value in assay [1] (10 µM) is -0.0144; in assay [1] (50 µM), 0.0858; in assay [2] (10 µM) it was -0.391; in assay [2] (50 µM), -0.305.
